# Experimental data: PubChem BioAssay AID1259254 (NCATS, 2017)
# Screen: 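Finding genes that stop cells copying their DNA twice in one cycle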 (primary screen)
# Cell system: human HCT116 colorectal cancer cells
# Reagent: single siRNA against human genes
# Timing: 3 days
# Measurement: 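Imaged Hoechst DNA stain sorts each cell into a cycle phase by DNA amount; per plate, G2 fraction set to 0% for non-targeting and 100% for GMNN siRNA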
# Direction: G2 robust z-score: higher = more G2 cells, more excess DNA replication
# Active means: 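An siRNA counts as active if its G2 robust z-score lies at least 5 MADs above the screen median; here such calls match roughly 38% of GMNN control or more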
# In all, the deposit lists about 59,000 reagents; shown is a part drawn at random. About 1,550 of them (2.6%) count as active. 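G2 share is only a proxy for re-replication; each gene was hit by three separate siRNAs, and active genes were retested.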 Entries without a mark were called inactive. The numbers tell different reagents against one gene apart. Not all columns of the deposit are shown. Not given: the amount of reagent.
gene,reagent no.,G2 robust z-score
SRSF8 (serine and arginine rich splicing factor 8),1,-0.303
SRSF8 (serine and arginine rich splicing factor 8),2,-0.0562
SRSF8 (serine and arginine rich splicing factor 8),3,-0.0402
TBC1D9 (TBC1 domain family member 9),1,4.27
TBC1D9 (TBC1 domain family member 9),2,0.929
TBC1D9 (TBC1 domain family member 9),3,-0.128
ITIH6 (inter-alpha-trypsin inhibitor heavy chain family member 6),1,-0.207
ITIH6 (inter-alpha-trypsin inhibitor heavy chain family member 6),2,-0.32
ITIH6 (inter-alpha-trypsin inhibitor heavy chain family member 6),3,-0.396
CCDC140 (CCDC140 long non-coding RNA),1,-0.31
CCDC140 (CCDC140 long non-coding RNA),2,-0.173
CCDC140 (CCDC140 long non-coding RNA),3,-0.659
HS3ST4 (heparan sulfate-glucosamine 3-sulfotransferase 4),1,0.482
HS3ST4 (heparan sulfate-glucosamine 3-sulfotransferase 4),2,0.304
HS3ST4 (heparan sulfate-glucosamine 3-sulfotransferase 4),3,-0.559
SLCO2B1,1,2.66
SLCO2B1,2,2.61
SLCO2B1,3,0.154
RIPPLY2 (ripply transcriptional repressor 2),1,2.14
RIPPLY2 (ripply transcriptional repressor 2),2,-0.764
RIPPLY2 (ripply transcriptional repressor 2),3,0.154
SLC25A47,1,2.14
SLC25A47,2,-0.597
SLC25A47,3,-0.282
DCP1A (decapping mRNA 1A),1,1.64
DCP1A (decapping mRNA 1A),2,-0.436
DCP1A (decapping mRNA 1A),3,-0.591
ARL13A (ARF like GTPase 13A),1,0.385
ARL13A (ARF like GTPase 13A),2,0.825
ARL13A (ARF like GTPase 13A),3,3.16
ZNF57 (zinc finger protein 57),1,-0.95
ZNF57 (zinc finger protein 57),2,0.117
ZNF57 (zinc finger protein 57),3,-0.409
ILF2 (interleukin enhancer binding factor 2),1,0.746
ILF2 (interleukin enhancer binding factor 2),2,4.36
ILF2 (interleukin enhancer binding factor 2),3,0.0722
SFRP4 (secreted frizzled related protein 4),1,2.29
SFRP4 (secreted frizzled related protein 4),2,0.222
SFRP4 (secreted frizzled related protein 4),3,-0.831
ITLN1 (intelectin 1),1,-0.535
ITLN1 (intelectin 1),2,0.632
ITLN1 (intelectin 1),3,4.43
ENTPD1 (ectonucleoside triphosphate diphosphohydrolase 1),1,-0.168
ENTPD1 (ectonucleoside triphosphate diphosphohydrolase 1),2,0.662
ENTPD1 (ectonucleoside triphosphate diphosphohydrolase 1),3,-0.236
PDZD7 (PDZ domain containing 7),1,0.0584
PDZD7 (PDZ domain containing 7),2,-0.135
PDZD7 (PDZ domain containing 7),3,1.26
SIRPG (signal regulatory protein gamma),1,-0.267
SIRPG (signal regulatory protein gamma),2,0.683
SIRPG (signal regulatory protein gamma),3,-0.147
GZMM (granzyme M),1,-0.176
GZMM (granzyme M),2,-0.686
GZMM (granzyme M),3,-0.631
CDK4 (cyclin dependent kinase 4),1,0.0572
CDK4 (cyclin dependent kinase 4),2,-0.453
CDK4 (cyclin dependent kinase 4),3,-1.02
AGPAT4 (1-acylglycerol-3-phosphate O-acyltransferase 4),1,-0.249
AGPAT4 (1-acylglycerol-3-phosphate O-acyltransferase 4),2,-0.314
AGPAT4 (1-acylglycerol-3-phosphate O-acyltransferase 4),3,-1.44
RD3L (RD3 like),1,0.487
RD3L (RD3 like),2,1.97
RD3L (RD3 like),3,-0.243
MMP16 (matrix metallopeptidase 16),1,-0.796
MMP16 (matrix metallopeptidase 16),2,0.0917
MMP16 (matrix metallopeptidase 16),3,0.44
HDGFL3 (HDGF like 3),1,-0.663
HDGFL3 (HDGF like 3),2,1.26
HDGFL3 (HDGF like 3),3,0.433

11 consecutive entries already listed, quoted:
gene,reagent no.,G2 robust z-score
HS3ST4 (heparan sulfate-glucosamine 3-sulfotransferase 4),2,0.304
HS3ST4 (heparan sulfate-glucosamine 3-sulfotransferase 4),3,-0.559
SLCO2B1,1,2.66
SLCO2B1,2,2.61
SLCO2B1,3,0.154
RIPPLY2 (ripply transcriptional repressor 2),1,2.14
RIPPLY2 (ripply transcriptional repressor 2),2,-0.764
RIPPLY2 (ripply transcriptional repressor 2),3,0.154
SLC25A47,1,2.14
SLC25A47,2,-0.597
SLC25A47,3,-0.282
